Source: PubChem BioAssay AID540276 (National Center for Advancing Translational Sciences (NCATS), 2011)
Several values for one entry are separate records, joined by “and”; a condition that tells them apart may be missing. Equal entries are not always repeated. Screen size: about 300,000 compounds; about 5,400 (1.8%) were called active. The shares of active, inactive and inconclusive entries below differ from those in the screen. Calls come from the whole dose curve; tested in HEK293 cells. Potencies of inconclusive entries are doubtful fits and often do not repeat.
% is set by controls: 0 for no effect and ±100 for the full control effect; potency is the fitted concentration of half-maximal effect.

Assay: qHTS for inhibitors of binding or entry into cells for Marburg Virus
Conditions: Marburg virus pseudotyped entry inhibition, cell reporter; activity change, negative = inhibition: at 37.8 µM (top of the series) unless noted
For `CC1CC(C)CN(C(=O)CCNS(=O)(=O)c2ccc3c(c2)CCC(=O)N3)C1` (stereo not drawn), the “activity change, negative = inhibition” value was inactive: 10.7%. With `COc1ccc(OC)c(NC(=O)CSc2nnc(C3CCCCC3)n2-c2ccccc2)c1` the Potency was inconclusive: 22.4 µM [inhibitor, single point]. In the case of `O=C(Nc1ccccc1)c1ccc(-c2ccc(F)cc2)s1`, the Potency is reported as inconclusive: 4.47 µM [inhibitor, single point]. With `CCOc1ccccc1NC(=O)CC1Nc2ccccc2NC1=O` (stereo not drawn) the Potency was inconclusive: 8.91 µM [inhibitor, partial curve, poor fit]. With `CC(=O)/C(=N/Nc1ccccc1[N+](=O)[O-])N1CCCc2ccccc21` the “activity change, negative = inhibition” value was inactive: -17.7% [at 46.1 µM]. For `CC1(C)CN(Cc2cccnc2)C(=O)[C@@H]1CC(=O)Nc1ccc(Br)cc1`, the Potency was inconclusive: 35.3 µM [inhibitor, single point]. In the case of `Cn1c(=O)c2c(nc(CN3CCN(C(c4ccccc4)c4ccccc4)CC3)n2CCCO)n(C)c1=O`, the Potency is reported as inconclusive: 35.5 µM [inhibitor, single point]. For `COc1cc(CN(C)Cc2cc(=O)n3ccsc3n2)ccc1OC(F)F`, the Potency was inconclusive: 1.58 µM [inhibitor, partial curve, poor fit]. With `Cc1cc(C)nc(NC(=O)CSc2nc3ccccc3o2)n1` the “activity change, negative = inhibition” value was inactive: 2.8%. For `Cc1c(C(=O)c2ccc(Cl)cc2[N+](=O)[O-])c2ccccn2c1CCC#N`, the Potency was inconclusive: 20 µM [inhibitor, single point]. For `Cc1nn2c3c(cnc2c1-c1ccccc1)C(=O)CCC3`, the “activity change, negative = inhibition” value was inactive: -0.682%. For `CCOC(=O)CN(C#N)c1nc(N(C)C)nc(N(C)C)n1`, the Potency was inconclusive: 3.55 µM [inhibitor, full curve]. For `CCCCOc1ccc(CNn2c(C)nc3ccccc3c2=O)cc1`, the Potency was inconclusive: 29.1 µM [inhibitor, single point]. With `O=C(CCc1nc(-c2ccccc2F)no1)NCCN1CCc2ccccc2C1` the “activity change, negative = inhibition” value was inactive: -11.6% [at 46.1 µM]. For `CCOC(=O)Cc1csc(NC(=O)CS(=O)(=O)Cc2ccccc2)n1`, the “activity change, negative = inhibition” value was inactive: -22%. For `CN=C1S/C(=C\c2ccc(Cl)cc2)C(=O)N1C`, the “activity change, negative = inhibition” value was inactive: 19.8% [at 46.1 µM]. With `O=[N+]([O-])c1cc(S(=O)(=O)Nc2ccc(Cl)cc2)ccc1N/N=C/c1ccncc1` the Potency was inconclusive: 1.64 µM [inhibitor, full curve, poor fit]. For `CN(C)CCCNc1oc(/C=C/c2ccc(F)cc2)nc1C#N`, the Potency was inconclusive: 2 µM [inhibitor, partial curve, poor fit]. For `Nc1cc(C(=O)N2CCCC2)cc(C(=O)N2CCCC2)c1`, the Potency was inconclusive: 23.1 µM [activator, single point]. With `CCCCn1c(N)c(N(CC(C)C)C(=O)c2cc(C)nc3ccccc23)c(=O)[nH]c1=O` the Potency was inconclusive: 3.16 µM [inhibitor, single point]. For `COc1cc(SC)ccc1C(=O)Nc1ccc(Cl)cn1`, the Potency was active: 1.12 µM. For `N#C/C(=N\Nc1ccccc1[N+](=O)[O-])C(=N)N1CCCCC1`, the Potency was inconclusive: 1.12 µM [activator, full curve]. For `OCCNCc1ccc(OCc2ccc(Cl)cc2Cl)cc1`, the Potency was inconclusive: 35.5 µM [inhibitor, single point]. With `CCCSc1nc2c(cnn2-c2ccccc2)c(=O)n1N` the Potency was inconclusive: 31.6 µM [inhibitor, single point]. For `COc1ccc(-c2noc(-c3ccc(NCc4ccccc4OC)c([N+](=O)[O-])c3)n2)cc1`, the “activity change, negative = inhibition” value was inactive: 16.3% [at 46.1 µM]. In the case of `CN(C)S(=O)(=O)N1CCN(C(=O)N2CCOCC2)CC1`, the “activity change, negative = inhibition” value is reported as inactive: -6%. With `COCCN(CC(=O)Nc1cccc(C)c1C)C(=O)c1ccc2ccccc2n1` the Potency was inconclusive: 0.794 µM [activator, partial curve, poor fit]. For `O=C(COc1ccc(S(=O)(=O)NC2CCCCC2)cc1Cl)NCC1CCCO1` (stereo not drawn), the Potency was inconclusive: 0.794 µM [activator, full curve, poor fit]. For `CC(C)(C)c1ccc(C(=O)N2CCC(C(=O)NCC3CCCO3)CC2)cc1` (stereo not drawn), the Potency was inconclusive: 20.6 µM [activator, partial curve]. With `Cc1c(C(=O)Nc2cccc([N+](=O)[O-])c2)csc1-c1ccccc1` the Potency was inconclusive: 5.01 µM [inhibitor, full curve, poor fit]. For `Brc1ccccc1CNCCc1ccc2c(c1)OCO2`, the Potency was inconclusive: 1.26 µM [inhibitor, single point]. With `CC1CC(=O)C2=C(C1)Nc1nc3ccccc3n1C2c1cccnc1` (stereo not drawn) the Potency was inconclusive: 2.82 µM [inhibitor, partial curve, poor fit]. For `CC(=O)NCCc1c[nH]c2ccccc12`, the Potency was “inactive”. With `NN1C(=O)/C(=C\c2ccco2)SC1=S` the “activity change, negative = inhibition” value was inactive: 5.89% [at 46.1 µM]. With `COc1ccccc1CCNC(=O)C1(C)CC1(Cl)Cl` (stereo not drawn) the Potency was inconclusive: 3.55 µM [inhibitor, single point]. In the case of `COc1ccc2cc3cc(C(=O)NCC4COc5ccccc5O4)oc3nc2c1` (stereo not drawn), the Potency is reported as inconclusive: 0.794 µM [activator, single point]. With `Cc1cc(C(=O)Nc2ccccc2)c(C)o1` the “activity change, negative = inhibition” value was inactive: 15.6%. With `CCn1c(SCC(=O)c2c(N)n(C)c(=O)n(C)c2=O)nnc1-c1ccccc1` the “activity change, negative = inhibition” value was inactive: -0.329%. With `CCc1c(C)sc(NC(=O)C2CCCO2)c1C#N` (stereo not drawn) the “activity change, negative = inhibition” value was inactive: 2.32%. With `O=C(Nc1nc(-c2ccccc2)c(-c2ccccc2)s1)c1ccc(S(=O)(=O)N2CCCCC2)cc1` the Potency was inconclusive: 5.62 µM [inhibitor, single point]. For `COCCN1Cc2cccc(C(=O)Nc3cc(OC)ccc3OC)c2C1=O`, the Potency was inconclusive: 14.1 µM [inhibitor, single point]. For `CCCCNC(=O)CCCn1c(=O)c2ccccc2n(Cc2ccccc2C)c1=O`, the Potency was inconclusive: 6.31 µM [inhibitor, single point]. With `CS(=O)(=O)N(CC(=O)O)c1cccc(Cl)c1` the Potency was inconclusive: 3.98 µM [inhibitor, single point]. With `COC(=O)c1ccc(C)c(NC(=O)CCSc2ccc(Cl)cc2)c1` the Potency was inconclusive: 12.6 µM [inhibitor, partial curve, poor fit]. With `CC(C)(C)NC(=O)C(c1ccncc1)N(Cc1ccco1)C(=O)c1ccc(-c2ccccc2)[nH]1` (stereo not drawn) the Potency was inconclusive: 15.8 µM [inhibitor, single point]. In the case of `CC(=O)c1ccc(NC(=O)c2ncn(-c3ccccc3)n2)cc1`, the Potency is reported as inconclusive: 12.6 µM [activator, partial curve]. With `C/C(=N\NC(=O)NC1CCCCC1)c1ccc(OC(F)F)cc1OC(F)F` the Potency was inconclusive: 31.6 µM [inhibitor, single point]. With `CCc1ccc(CN(C(=O)c2cc3ccccc3oc2=O)C2CCS(=O)(=O)C2)cc1` (stereo not drawn) the Potency was inconclusive: 3.66 µM [activator, single point] and inconclusive: 2 µM [activator, full curve, poor fit]. For `O=C(NC1CCCCCC1)c1ccc(CS(=O)Cc2ccccc2Cl)o1` (stereo not drawn), the Potency was inconclusive: 31.6 µM [inhibitor, single point]. With `O=C1c2oc3ccc(F)cc3c(=O)c2C(c2cccc([N+](=O)[O-])c2)N1CCCN1CCOCC1` (stereo not drawn) the Potency was inconclusive: 35.5 µM [inhibitor, single point]. For `Cn1nc(C(=O)N2CCN(c3ccccc3F)CC2)c2c1-c1ccccc1SC2`, the Potency was inconclusive: 35.5 µM [inhibitor, single point]. With `CC(Sc1nnc2n1CCCCC2)C(=O)Nc1ccc(S(N)(=O)=O)cc1` (stereo not drawn) the Potency was inconclusive: 5.62 µM [activator, full curve, poor fit]. With `CCOc1ccc(-c2cnc(NCc3ccc(OC)cc3OC)n2C)cc1` the Potency was inconclusive: 7.94 µM [inhibitor, partial curve, poor fit]. For `CCNC(=S)N/N=C(\C)c1ccc(Cl)s1`, the “activity change, negative = inhibition” value was inactive: -25.8%. With `CCCCN(CC)CCCNC(=O)c1cc2c(-c3ccc(OC)c(OC)c3)nn(C)c2s1` the Potency was inconclusive: 12.6 µM [inhibitor, partial curve, poor fit] and inconclusive: 5.62 µM [inhibitor, single point]. For `CCC(CC)C(=O)Nc1c(C(=O)N2CCN(c3ccccc3)CC2)oc2ccccc12`, the Potency was inconclusive: 11.2 µM [inhibitor, partial curve]. With `CC1CCCC(C)N1C(=O)CSc1nc2ncnc(N)c2[nH]1` (stereo not drawn) the “activity change, negative = inhibition” value was inactive: 5.47%. In the case of `COc1ccc(C(=O)NCc2cccnc2)cc1`, the “activity change, negative = inhibition” value is reported as inactive: 7.28%. In the case of `Nn1c(-c2cccc(Br)c2)n[nH]c1=S`, the “activity change, negative = inhibition” value is reported as inactive: 8.62%. With `Cc1nnc(NC(=O)C(C)Sc2nnc(CNC(=O)c3ccccc3F)n2C)s1` (stereo not drawn) the Potency was inconclusive: 1.12 µM [inhibitor, full curve, poor fit]. For `O=c1[nH]ncn1-c1ccc(Br)cc1`, the Potency was inconclusive: 0.562 µM [inhibitor, full curve, poor fit]. For `CCCN(CCC)CC(O)Cn1cc(/C=C/C(=O)c2ccc(OC)cc2)c2ccccc21` (stereo not drawn), the Potency was inconclusive: 22.4 µM [inhibitor, single point]. In the case of `COc1ccc(C(=O)CCC(=O)NCCc2c[nH]c3ccccc23)cc1OC`, the “activity change, negative = inhibition” value is reported as inactive: -28.9% [at 46.1 µM]. In the case of `Cc1cccc(NC(=O)CN2C(=O)CSC2=O)c1`, the Potency is reported as inconclusive: 0.562 µM [activator, full curve, poor fit]. With `Cc1nc2scc(-c3ccc(C(C)C)cc3)c2c(=O)n1N` the Potency was inconclusive: 2.24 µM [inhibitor, single point]. In the case of `NC(=O)c1cccc(N)c1`, the Potency is reported as inconclusive: 12.6 µM [inhibitor, partial curve]. For `COc1ccc(N2C(=O)c3ccccc3NC2c2ccc(OC)c(Cn3nnc4ccccc43)c2)cc1` (stereo not drawn), the Potency was inconclusive: 35.5 µM [inhibitor, single point]. For `O=c1c2ccccc2[nH]c(=S)n1-c1cccc(S(=O)(=O)N2CCCC2)c1`, the “activity change, negative = inhibition” value was inactive: 0.063% [at 46.1 µM].
